# Patent US6586241B1, “Methods to identify compounds affecting mitochondria” (Johns Hopkins University, priority 1998, dated 2003)
# Protein sequences, listed by entry. Tags and fused reporters are not part of them. Lines headed by an entry give the natural chain unless they say otherwise; changes in a name come on top.
# UniProt O02822: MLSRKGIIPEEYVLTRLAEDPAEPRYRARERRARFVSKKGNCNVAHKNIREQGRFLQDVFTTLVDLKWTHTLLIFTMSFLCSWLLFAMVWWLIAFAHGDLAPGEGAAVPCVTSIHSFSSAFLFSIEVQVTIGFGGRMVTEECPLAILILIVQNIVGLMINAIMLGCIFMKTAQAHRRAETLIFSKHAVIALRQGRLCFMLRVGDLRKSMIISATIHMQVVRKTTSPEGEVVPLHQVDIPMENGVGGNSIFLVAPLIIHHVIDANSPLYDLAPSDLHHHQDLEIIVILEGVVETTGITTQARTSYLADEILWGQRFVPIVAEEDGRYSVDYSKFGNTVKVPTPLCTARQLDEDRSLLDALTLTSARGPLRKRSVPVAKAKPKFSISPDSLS
# UniProt P82451: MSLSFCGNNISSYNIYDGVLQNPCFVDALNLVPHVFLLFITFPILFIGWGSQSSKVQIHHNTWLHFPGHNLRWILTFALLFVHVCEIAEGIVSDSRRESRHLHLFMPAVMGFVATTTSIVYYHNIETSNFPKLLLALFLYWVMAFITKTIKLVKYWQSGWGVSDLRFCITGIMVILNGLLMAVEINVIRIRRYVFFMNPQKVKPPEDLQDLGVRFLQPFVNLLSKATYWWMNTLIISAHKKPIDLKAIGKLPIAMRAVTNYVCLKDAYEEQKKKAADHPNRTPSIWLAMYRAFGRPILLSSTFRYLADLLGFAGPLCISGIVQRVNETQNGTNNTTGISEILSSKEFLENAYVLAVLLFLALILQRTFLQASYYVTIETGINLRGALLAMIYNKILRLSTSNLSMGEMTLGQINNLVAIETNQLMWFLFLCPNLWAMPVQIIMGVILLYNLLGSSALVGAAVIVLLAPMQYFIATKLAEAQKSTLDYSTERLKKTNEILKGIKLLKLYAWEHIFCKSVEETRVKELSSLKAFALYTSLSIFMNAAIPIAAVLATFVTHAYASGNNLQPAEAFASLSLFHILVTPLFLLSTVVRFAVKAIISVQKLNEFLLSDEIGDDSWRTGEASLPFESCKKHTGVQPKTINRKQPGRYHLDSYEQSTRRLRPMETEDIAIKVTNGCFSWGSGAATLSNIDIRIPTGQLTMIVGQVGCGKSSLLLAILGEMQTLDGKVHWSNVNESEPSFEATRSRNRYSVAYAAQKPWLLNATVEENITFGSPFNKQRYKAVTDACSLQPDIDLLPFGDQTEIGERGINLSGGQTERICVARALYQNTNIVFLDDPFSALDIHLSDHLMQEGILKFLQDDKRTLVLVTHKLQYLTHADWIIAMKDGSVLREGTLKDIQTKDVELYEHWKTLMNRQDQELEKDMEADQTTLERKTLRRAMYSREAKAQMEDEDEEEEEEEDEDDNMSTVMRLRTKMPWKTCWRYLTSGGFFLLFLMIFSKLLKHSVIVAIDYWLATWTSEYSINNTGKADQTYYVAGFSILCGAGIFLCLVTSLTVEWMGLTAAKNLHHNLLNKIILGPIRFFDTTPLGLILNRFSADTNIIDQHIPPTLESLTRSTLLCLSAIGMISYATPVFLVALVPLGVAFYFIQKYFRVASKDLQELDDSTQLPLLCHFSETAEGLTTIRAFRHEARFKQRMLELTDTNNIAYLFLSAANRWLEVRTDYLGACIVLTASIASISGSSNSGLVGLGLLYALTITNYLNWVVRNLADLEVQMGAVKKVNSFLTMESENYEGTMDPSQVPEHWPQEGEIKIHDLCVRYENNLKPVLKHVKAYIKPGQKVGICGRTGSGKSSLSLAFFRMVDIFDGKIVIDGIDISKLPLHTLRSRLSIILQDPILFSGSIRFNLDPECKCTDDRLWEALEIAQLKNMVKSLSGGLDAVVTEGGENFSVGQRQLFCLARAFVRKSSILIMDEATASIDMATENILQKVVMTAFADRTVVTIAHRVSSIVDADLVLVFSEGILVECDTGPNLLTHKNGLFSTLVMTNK
# Entries after “also recorded” stand apart in the source; their conditions may differ. For at least one compound, name, drawing or mass did not settle the structure.
# Columns and labels:
# Type in all cases: cell-based, rabbit
# [1] = target: T1, sarcolemmal KATP channels (Oryctolagus cuniculus, UniProt O02822+P82451); assay: Whole-cell patch recording of sarcolemmal KATP current (IKATP); settings: prolonged exposure (>6 min) to DNP; FIG. 1B, 2B, 4
# T1 construct: ventricular myocytes were isolated from adult rabbit hearts by conventional enzymatic dissociation; endogenous in cells; host or cells: primary adult rabbit ventricular myocytes
# Excerpt: (§1) In the following Examples, ventricular myocytes were isolated from adult rabbit hearts by conventional enzymatic dissociation, according to Liu, Y., et al., “Synergistic modulation of ATP-sensitive K^+ currents by protein kinase C and adenosine: implications for ischemic preconditioning”, Circ. Res., 1996, 78: 443-454, then washed several times with calcium-free solution. […].
# (§2) For whole-cell patch recordings, the internal pipette solution contained (in mM): 120 K-glutamate, 25 KCI, 0.5 MgCl2, 10 K-EGTA, 10 HEPES and 1 MgATP (pH 7.2 with KOH). The external solution included (in mM): 140 NaCl, 5 KCI, 1 CaCl2, 1 MgCl2, and 10 HEPES (pH 7.4 with NaOH). Whole-cell currents were elicited every 6 sec from a holding potential of −80 mV by two consecutive steps to −40 mV (for 100 msec) and 0 mV (for 380 msec). Currents at 0 mV were measured 200 msec into the pulse. Endogenous flavoprotein fluorescence was excited using a xenon arc lamp with a bandpass filter centered at 480 nm, but only during the 100 msec step to −40 mV t to minimize photobleaching. Emitted fluorescence was recorded at 530 nm by a photomultiplier tube and digitized (Digidata 1200, Axon Instruments). […] Relative fluorescence was averaged during the excitation window and calibrated using the values after dinitrophenol (DNP) and sodium cyanide (CN) exposure.
# [2] = tested on: mitochondrial flavoprotein oxidation (mitochondrial KATP channels); assay: Flavoprotein fluorescence measurement of mitochondrial redox state in intact ventricular myocytes; settings: exposure at end of experiments; FIG. 1A, 2A
# Excerpt: as §1, §2
# [3] = tested on: mitochondria of ventricular myocytes
smiles,measurement,setting,value
"O=[N+]([O-])c1ccc(O)c([N+](=O)[O-])c1 [DNP, dinitrophenol]",activation of IKATP,[1],eventually turned on; also recorded: did turn on
same,flavoprotein redox signal calibration,[2],induced maximal oxidation
same,"flavoprotein fluorescence, confocal images",[3],increased fluorescence even further
